Source: paper PMC9105187

Sequences of proteins named here, by UniProt entry; tags and fusion partners are left off.
UniProt Q12983: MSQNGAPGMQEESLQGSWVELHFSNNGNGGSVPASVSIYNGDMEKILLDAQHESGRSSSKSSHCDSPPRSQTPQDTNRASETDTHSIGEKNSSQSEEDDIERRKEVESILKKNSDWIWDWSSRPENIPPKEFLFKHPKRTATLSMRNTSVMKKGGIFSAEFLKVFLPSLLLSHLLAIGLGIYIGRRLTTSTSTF
UniProt Q9NS69: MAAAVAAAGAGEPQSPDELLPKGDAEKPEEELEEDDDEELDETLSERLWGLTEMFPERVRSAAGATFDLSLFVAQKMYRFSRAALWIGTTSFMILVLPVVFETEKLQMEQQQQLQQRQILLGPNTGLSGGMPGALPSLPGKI
UniProt P60842: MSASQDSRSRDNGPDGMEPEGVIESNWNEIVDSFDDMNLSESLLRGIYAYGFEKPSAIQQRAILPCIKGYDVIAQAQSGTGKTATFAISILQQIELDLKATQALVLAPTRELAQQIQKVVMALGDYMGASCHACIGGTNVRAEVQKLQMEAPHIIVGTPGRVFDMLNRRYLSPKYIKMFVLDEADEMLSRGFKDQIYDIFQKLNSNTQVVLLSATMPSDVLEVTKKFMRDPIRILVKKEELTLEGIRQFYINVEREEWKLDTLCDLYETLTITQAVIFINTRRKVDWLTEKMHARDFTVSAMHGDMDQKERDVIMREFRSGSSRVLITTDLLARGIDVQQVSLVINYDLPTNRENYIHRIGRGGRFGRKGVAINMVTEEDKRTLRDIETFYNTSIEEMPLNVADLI
UniProt P12235: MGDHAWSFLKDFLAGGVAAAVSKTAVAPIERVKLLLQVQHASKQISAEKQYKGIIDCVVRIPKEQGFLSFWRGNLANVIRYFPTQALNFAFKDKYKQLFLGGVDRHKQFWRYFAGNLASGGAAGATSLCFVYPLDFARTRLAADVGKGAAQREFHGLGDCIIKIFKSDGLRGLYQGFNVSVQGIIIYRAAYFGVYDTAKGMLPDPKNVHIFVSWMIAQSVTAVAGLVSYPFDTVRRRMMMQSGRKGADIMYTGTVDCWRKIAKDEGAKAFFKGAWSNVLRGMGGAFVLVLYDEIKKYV
UniProt Q9Y262: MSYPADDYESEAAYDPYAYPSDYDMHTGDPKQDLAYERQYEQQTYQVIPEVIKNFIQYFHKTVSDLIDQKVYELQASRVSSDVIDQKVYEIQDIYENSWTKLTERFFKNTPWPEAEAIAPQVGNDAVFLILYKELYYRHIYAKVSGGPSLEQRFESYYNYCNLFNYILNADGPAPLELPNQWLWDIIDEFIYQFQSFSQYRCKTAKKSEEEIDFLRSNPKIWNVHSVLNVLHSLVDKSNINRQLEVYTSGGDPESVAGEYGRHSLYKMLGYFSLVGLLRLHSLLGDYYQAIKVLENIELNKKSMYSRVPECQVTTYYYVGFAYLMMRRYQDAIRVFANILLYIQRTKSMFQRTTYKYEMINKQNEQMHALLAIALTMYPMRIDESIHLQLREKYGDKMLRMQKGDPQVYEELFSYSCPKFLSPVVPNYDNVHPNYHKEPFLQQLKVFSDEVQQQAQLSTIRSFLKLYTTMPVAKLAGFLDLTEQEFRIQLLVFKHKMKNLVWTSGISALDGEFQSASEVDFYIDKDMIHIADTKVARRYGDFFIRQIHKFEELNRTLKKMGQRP

Target: Bcl-2 nineteen kilodalton interacting protein 3 (human) (human (endogenous in LV myocardium)) (UniProt Q12983)
Assay: affinity purification with mass spectrometry; 500 ug lysate of human HFrEF LV myocardium (n = 3, taken at LVAD implantation) incubated with 10 ug mouse monoclonal BNIP3 antibody (Abcam ab10433); eluate on SDS-PAGE, in-gel trypsin digestion, nano-LC-MS/MS

In the case of “TOMM22 (human) (from UniProt Q9NS69 1-142)”, the binding is reported as “binds”.

For “eukaryotic translation initiation factor EIF4A1 (human) (from UniProt P60842 1-406)”, the binding was “binds”.

With “ADP/ATP translocase isoform 1 (human) (from UniProt P12235 1-298)” the binding was “binds”.

In the case of “eukaryotic translation initiation factor EIF3L (human) (from UniProt Q9Y262 1-564)”, the binding is reported as “binds”.

No constants are given. Whether binding was seen depends on the method and setting. Binding seen in cells or lysates may run through a third protein. A yes stands for co-enrichment or nearness to the bait. Other partners may have been found.
